Data source: PubChem BioAssay AID1224830 (NIAID, 2016)

- Purpose: 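Genes whose knock-down alters the TNF-alpha reporter response to LPS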 (primary screen)
- Cell system: human THP-1 monocytic leukaemia cells, TNF dual-luciferase reporter clone, PMA-differentiated to macrophage-like cells
- Knock-down reagent: siRNA pool against human genes, 50 nM
- Duration: LPS for 4 h, given about 3 days after siRNA transfection
- Conditions: bacterial LPS (TLR4 ligand), 10 ng/ml
- Measurement: 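TNF firefly reporter luminescence divided by renilla, normalised to the plate median, then turned into a robust z-score for each replicate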
- Direction: TNF reporter robust z-score: higher = stronger TNF reporter response to LPS
- Rule for the call: 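Each well counts as active if its z-score is over 2.8 or under -1.5; controls are left without a call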
This is a random part of about 18,000 reagents. Over the whole deposit, about 2,900 (16%) got an active call. 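Calls are made per well; low scores hint the gene aids the LPS response, high scores that it dampens it.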 A number with no mark means an inactive call. Repeated entries: four replicate wells of each siRNA pool.

target gene	TNF reporter robust z-score
CYP1A1 (GeneID 1543)	2.04
CYP1A1 (GeneID 1543)	2.66
CYP1A1 (GeneID 1543)	2.32
CYP1A1 (GeneID 1543)	3.49 (active)
FPGT (GeneID 8790)	-0.54
FPGT (GeneID 8790)	0.69
FPGT (GeneID 8790)	-0.18
FPGT (GeneID 8790)	0.74
ZNF471 (GeneID 57573)	0.61
ZNF471 (GeneID 57573)	0.64
ZNF471 (GeneID 57573)	-0.27
ZNF471 (GeneID 57573)	-0.11
FLOT2 (GeneID 2319)	-0.92
FLOT2 (GeneID 2319)	-1
FLOT2 (GeneID 2319)	-1.1
FLOT2 (GeneID 2319)	-1.19
PRM1 (GeneID 5619)	0.49
PRM1 (GeneID 5619)	-1.2
PRM1 (GeneID 5619)	-0.72
PRM1 (GeneID 5619)	-0.19
MAPT (GeneID 4137)	0.42
MAPT (GeneID 4137)	0.49
MAPT (GeneID 4137)	1.38
MAPT (GeneID 4137)	-0.28
PAPOLA (GeneID 10914)	-1.06
PAPOLA (GeneID 10914)	-0.89
PAPOLA (GeneID 10914)	-0.82
PAPOLA (GeneID 10914)	0.13
SDHA (GeneID 6389)	-0.64
SDHA (GeneID 6389)	0.08
SDHA (GeneID 6389)	-0.6
SDHA (GeneID 6389)	0.17
INTU (GeneID 27152)	-0.24
INTU (GeneID 27152)	1
INTU (GeneID 27152)	0.87
INTU (GeneID 27152)	2.9 (active)
CEACAM1 (GeneID 634)	0.79
CEACAM1 (GeneID 634)	1.53
CEACAM1 (GeneID 634)	0.95
CEACAM1 (GeneID 634)	1.4
MAT2A (GeneID 4144)	-1.98 (active)
MAT2A (GeneID 4144)	-1.33
MAT2A (GeneID 4144)	-1.52 (active)
MAT2A (GeneID 4144)	-1.47
MRPS9 (GeneID 64965)	0.47
MRPS9 (GeneID 64965)	0.39
MRPS9 (GeneID 64965)	-0.66
MRPS9 (GeneID 64965)	0.17
KRTAP10-4 (GeneID 386672)	1.03
KRTAP10-4 (GeneID 386672)	-0.57
KRTAP10-4 (GeneID 386672)	0.67
KRTAP10-4 (GeneID 386672)	0.12
HMGA1 (GeneID 3159)	-1.27
HMGA1 (GeneID 3159)	0.33
HMGA1 (GeneID 3159)	0.52
HMGA1 (GeneID 3159)	-0.62
POGK (GeneID 57645)	-0.91
POGK (GeneID 57645)	-0.37
POGK (GeneID 57645)	-0.95
POGK (GeneID 57645)	-0.63
RAC2 (GeneID 5880)	-0.54
RAC2 (GeneID 5880)	0.13
RAC2 (GeneID 5880)	0.12
RAC2 (GeneID 5880)	0.42
MYO6 (GeneID 4646)	0.3
MYO6 (GeneID 4646)	1.11
MYO6 (GeneID 4646)	-1.41
MYO6 (GeneID 4646)	0.66
RALA (GeneID 5898)	-0.81
RALA (GeneID 5898)	-0.64
RALA (GeneID 5898)	0.01
RALA (GeneID 5898)	0.14
CYP27C1 (GeneID 339761)	-0.37
CYP27C1 (GeneID 339761)	0.6
CYP27C1 (GeneID 339761)	-0.5
CYP27C1 (GeneID 339761)	-0.2
XPO6 (GeneID 23214)	0.03
XPO6 (GeneID 23214)	0.35
XPO6 (GeneID 23214)	-0.15
XPO6 (GeneID 23214)	0.33
RAPGEF5 (GeneID 9771)	-1.45
RAPGEF5 (GeneID 9771)	-0.69
RAPGEF5 (GeneID 9771)	-0.9
RAPGEF5 (GeneID 9771)	-0.15
TERF1 (GeneID 7013)	1.65
TERF1 (GeneID 7013)	0.79
TERF1 (GeneID 7013)	0.59
TERF1 (GeneID 7013)	1.99
IL33R (GeneID 9173)	-0.28
IL33R (GeneID 9173)	0.94
IL33R (GeneID 9173)	-0.51
IL33R (GeneID 9173)	0.83
GRIN3B (GeneID 116444)	-1.14
GRIN3B (GeneID 116444)	-0.74
GRIN3B (GeneID 116444)	-0.82
GRIN3B (GeneID 116444)	-0.88
RETN (GeneID 56729)	0.3
RETN (GeneID 56729)	2.26
RETN (GeneID 56729)	1.2
RETN (GeneID 56729)	2.41
YWHAG (GeneID 7532)	-1.01
YWHAG (GeneID 7532)	-1.45
YWHAG (GeneID 7532)	-1.87 (active)
YWHAG (GeneID 7532)	-1.38
PPFIA1 (GeneID 8500)	0.38
PPFIA1 (GeneID 8500)	1.29
PPFIA1 (GeneID 8500)	1.5
PPFIA1 (GeneID 8500)	1.93
ZNF133 (GeneID 7692)	-0.38
ZNF133 (GeneID 7692)	-0.18
ZNF133 (GeneID 7692)	-0.55
ZNF133 (GeneID 7692)	-0.09

No new results follow: entries from further up.
target gene	TNF reporter robust z-score
GRIN3B (GeneID 116444)	-0.88
RETN (GeneID 56729)	0.3
RETN (GeneID 56729)	2.26
RETN (GeneID 56729)	1.2
RETN (GeneID 56729)	2.41
YWHAG (GeneID 7532)	-1.01
YWHAG (GeneID 7532)	-1.45
YWHAG (GeneID 7532)	-1.87 (active)
